At least one structure is not confirmed: it was looked up by name or label, or the drawing left a doubt.
System: Normal Human Dermal Fibroblasts (NHDF)
Test: Cellular in vitro hyaluronan assay on normal human dermal fibroblasts (hyaluronic acid ELISA)
Format: cell-based
Procedure: NHDF are seeded into a 24 well plate at a concentration of 1.5×10^4 cells/well. Cells are incubated at 37° C. and 5% CO2 in fibroblast medium containing 10% fetal bovine serum (FBS) until they are 70-80% confluent. Then the medium is withdrawn, cells are washed with PBS and the test compounds dissolved in fibroblast medium without FBS are added. After incubation for 16 h in the presence of the test compounds, the culture medium is collected and hyaluronan is determined by a hyaluronic acid ELISA detection kit (Corgenix) which is performed according to the supplier instructions. The stimulation of the hyaluronan biosynthesis in the presence of the test compounds is calculated according to the following equation: Hyaluronan stimulation [%]=([…]×100)−100 with • HAcontrol=hyaluronan content in ng/ml of the medium from cells treated with control • HAtest compound=hyaluronan content in ng/ml of the medium from cells treated with test compound

CC1=C(/C=C/C(C)=C/C=C/C(C)=C/C(=O)O)C(C)(C)CCC1 [Retinoic acid, reference compound]
Effect on hyaluronan production of dermal fibroblasts (in words): no stimulatory activity

Reference: patent US9980894B2, “Cosmetic compositions comprising hyaluronan biosynthesis promoting agents” (Symrise AG, priority 2012, dated 2018)
